Measured values from US20110263016A1, “Expansion of Embryonic Stem Cells” (priority 2008, published 2011).
At least one compound was matched to its structure with a doubt left.

Tested on: H9 hESCs
Experiment: Expansion of hESCs in stirred suspension bioreactors
Assay type: cell-based, human
Description: Bioreactor Maintenance of hESCs. H9 cells passaged in static on Matrigel™ or using feeder layers were pre-treated for 1 hr with 10 μM Y-27632 (Sigma), then dissociated as described earlier. The hESCs were then inoculated into 125 ml bioreactors (NDS Technologies) at 1.8×10^4 cells/ml. The bioreactors contained 100 ml of mTeSR medium supplemented with 10 μM Y-27632 and 0.1 nM Rapamycin (Sigma), were agitated at 100 rpm and were incubated under standard conditions (37° C., 5% CO2, saturated humidity). After 24 hrs in suspension culture, the Y-27632 was removed and replaced with mTeSR medium containing 0.1 nM Rapamycin. […] The single cell suspension of hESCs was split 1:5 and inoculated into a new bioreactor containing 100 ml of mTeSR medium supplemented with 10 μM Y-27632 and 0.1 nM Rapamycin for 24 hrs.
In the bioreactor systems, hESCs (collected from static cultures containing Matrigel™ or human foreskin fibroblast feeder (HFF) cells) were inoculated at 1.8×10^4 cells/ml into 100 ml of mTeSR medium (Stemcell Technologies Inc.) and agitated at 100 rpm.

CO[C@H]1C[C@@H]2CC[C@@H](C)[C@@](O)(O2)C(=O)C(=O)N2CCCC[C@H]2C(=O)O[C@H]([C@H](C)C[C@@H]2CC[C@@H](O)[C@H](OC)C2)CC(=O)[C@H](C)/C=C(\C)[C@@H](O)[C@@H](OC)C(=O)[C@H](C)C[C@H](C)/C=C/C=C/C=C/1C [Rapamycin, sirolimus (Rapamycin)]
hESC aggregate formation (10 μM ROCK inhibitor and 0.1 nM Rapamycin together, 1.8×10^4 cells/ml, mTeSR, 100 rpm): form tight aggregates | pluripotency marker expression, karyotype and teratoma formation of bioreactor cultures (ROCK inhibitor for 24 hrs and continuous 0.1 nM Rapamycin): high expression levels of Nanog, Oct-4 and other markers of pluripotency, a normal karyotype and the ability to form teratomas in vivo | hESC aggregate morphology and cell viability (Rapamycin reduced to 0.05 nM, mTeSR, 100 rpm, after first passage (day 6-7), data not shown): hESC aggregates became irregular and no viable cells were present after the first passage
